Experimental data published in PubChem BioAssay AID540276 (National Center for Advancing Translational Sciences (NCATS), 2011).
The campaign covered roughly 300,000 compounds. About 5,400 (1.8%) were called active. Inconclusive results, whose numbers are uncertain, are shown with a selection of clear calls. Calls follow the shape of the full dose curve; tested in HEK293 cells. Where the call is inconclusive, the potency comes from a doubtful curve fit.

assay: qHTS for inhibitors of binding or entry into cells for Marburg Virus; settings: Marburg virus pseudotyped entry inhibition, cell reporter; activity change, negative = inhibition: at 37.8 µM (top of the series) unless noted
% is scaled to controls: 0 for no effect and ±100 for the full control effect; potency is read from the fitted curve at half-maximal effect.

Row | SMILES | Potency | activity change, negative = inhibition
1 | NC(=O)c1ncn([C@@H]2O[C@H](CO)[C@@H](O)[C@H]2O)c1O | inconclusive: 0.562 µM [inhibitor, full curve, poor fit] | 
2 | CCOc1ccc(NC(=O)CC2C(=O)N(C)C(=S)N2CCCc2ccccc2)cc1 (stereo unspecified) | inconclusive: 29.1 µM [inhibitor, single point] | 
3 | Cc1ccc2nc(-c3ccc(NC(=O)CN4CCN(c5ccccn5)CC4)cc3)sc2c1 | inconclusive: 35.5 µM [inhibitor, single point] | 
4 | Cc1cc(C(=O)OCC(=O)Nc2ccc(F)cc2F)c(C)o1 | inconclusive: 22.4 µM [inhibitor, single point] | 
5 | CCc1csc(CCNC(=O)C2CCC(=O)N(Cc3ccccc3F)C2)n1 (stereo unspecified) | inconclusive: 1.41 µM [inhibitor, partial curve, poor fit] | 
6 | COc1ccc(Nc2c3c(nc4ccc(NC(=O)/C=C/c5cccc(OC)c5OC)cc24)CCCC3)cc1OC | inconclusive: 3.16 µM [inhibitor, partial curve, poor fit] | 
7 | Cc1nn(-c2ccc(Cl)c(Cl)c2)c(=O)c2ccccc12 | inconclusive: 10 µM [activator, partial curve] | 
8 | CCC(=O)Nc1ccc2c(c1)ncn2-c1ccccc1OC | inconclusive: 0.112 µM [activator, full curve, poor fit] | 
9 | CCN(CC)CCOC(=O)c1ccc(NC(=O)CSc2nnc(-c3cccs3)n2CC)cc1 | inconclusive: 0.316 µM [activator, partial curve, poor fit] | 
10 | O=C(Nc1cc(Cl)ccc1N1CCOCC1)c1ccc(N2CCCC2=O)cc1 | inconclusive: 20 µM [inhibitor, partial curve] | 
11 | CCCn1nc(C(=O)NNC(=O)C2CSC3(C)CCC(=O)N23)c2ccccc2c1=O (stereo unspecified) | inconclusive: 0.562 µM [inhibitor, partial curve, poor fit] | 
12 | CCC1(c2ccccc2)SCC(c2ccccc2)=NC1=O (stereo unspecified) | inconclusive: 35.5 µM [inhibitor, single point] | 
13 | COC(=O)c1ccccc1NC(=O)c1ccc2c(=O)n3c(nc2c1)CCCCC3 | inconclusive: 20 µM [inhibitor, single point] | 
14 | O=C(Cc1ccccc1F)OCC(=O)N1CCc2ccccc21 |  | inactive: 9.8% [at 46.1 µM]
15 | CCC1C(=O)OCC1Cc1cncn1C (stereo unspecified) | inconclusive: 6.51 µM [activator, single point] | 
16 | CCOP(=O)(OCC)c1nc(-c2ccc(C)cc2)oc1N1CCOCC1 |  | inactive: 11.5%
17 | CC(=O)NC1(C(F)(F)F)N=C2SCCN2C1=O (stereo unspecified) | inconclusive: 29.1 µM [activator, single point] | 
18 | Cc1ccccc1OCC(=O)Nc1cc(S(=O)(=O)N2CCCCC2)ccc1N1CCN(C)CC1 | inconclusive: 17.8 µM [inhibitor, single point] | 
19 | CCOC(=O)c1ccc(N2C(=O)c3n[nH]c(-c4ccco4)c3C2c2ccc([N+](=O)[O-])cc2)cc1 (stereo unspecified) | inconclusive: 7.08 µM [inhibitor, partial curve, poor fit] | 
20 | Cc1ccc(NC(=O)OC(C)N2CCCCC2)cc1NC(=O)OC(C)N1CCCCC1 (stereo unspecified) | active: 5.01 µM | 
21 | CCc1cc2c(-c3ccccc3)cc(=O)oc2c2c1OCN(Cc1ccc(F)cc1)C2 | inconclusive: 3.16 µM [activator, single point] | 
22 | Cc1ccnc(NS(=O)(=O)c2ccc(NC(=O)c3cc(-c4ccc(Br)cc4)nc4ccccc34)cc2)n1 | inconclusive: 0.562 µM [activator, partial curve, poor fit] | 

Row | SMILES | Potency | activity change, negative = inhibition
23 | CCOc1ncccc1C(=O)Nc1ccc2nc(C)sc2c1 | inconclusive: 35.5 µM [inhibitor, single point] | 
24 | Cc1ccc(C(=O)C2=C(O)C(=O)N(CCN3CCOCC3)C2c2ccccn2)o1 (stereo unspecified) |  | inactive: 2.29%
25 | N#C/C(=C(/O)CN1CCN(c2ccccc2F)CC1)c1nc(-c2ccc(Cl)cc2)cs1 |  | inactive: -9.5%
26 | Cn1c(=O)n(C)c2cc(N3CCOCC3)c(NC(=O)c3c(F)cccc3F)cc21 | inconclusive: 15.8 µM [activator, single point] | 
27 | Cc1cnc(C(=O)OCC(=O)c2ccccc2)cn1 |  | inactive: -4.69% [at 46.1 µM]
28 | CN(CC(=O)Nc1c(Cl)cccc1Cl)C(=O)CCC(=O)c1ccccc1 |  | inactive: -12.6%
29 | COc1cccc2c1c(NC(=O)Nc1ccc(F)cc1F)nn2C | inconclusive: 39.8 µM [activator, partial curve, poor fit] | 
30 | O=C(O)c1ccccc1Nc1ccc(OC(F)F)cc1 | inconclusive: 35.5 µM [inhibitor, single point] | 
31 | Cc1occc1C(=O)Nc1sccc1C(N)=O |  | inactive: 15% [at 46.1 µM]
32 | Nc1c(-c2ccccc2)c(CSc2nc3ccccc3[nH]2)nn1-c1ccc(Cl)cc1 | inconclusive: 32.6 µM [inhibitor, single point] | 
33 | CC(C)(C)c1ccc(S(=O)(=O)N2CCCCC2C(=O)NCc2ccccn2)cc1 (stereo unspecified) |  | inactive: -0.489%
34 | CCCCCCCCCCOC(=O)Cn1c(COc2ccc(C)cc2)[n+](C)c2ccccc21 | inconclusive: 12.6 µM [inhibitor, partial curve, poor fit] | 
35 | CCc1cccc(OCC2Cn3c(nc4c3c(=O)n(C)c(=O)n4C)O2)c1 (stereo unspecified) |  | inactive: -42.3% [at 46.1 µM]
36 | Cc1ccc(/C=C/c2ccc3cccc(O)c3n2)s1 | inconclusive: 35.5 µM [inhibitor, single point] | 
37 | C=CCN(c1ccccc1OC)S(=O)(=O)c1cccc(C(=O)NCc2cccs2)c1 | inconclusive: 35.5 µM [inhibitor, single point] | 
38 | COc1ccc(S(=O)(=O)N(C)CC(=O)N2CCOCC2)cc1 | inconclusive: 1.64 µM [activator, partial curve, poor fit] | 
39 | O=C(CN1CCN(c2ccc(F)cc2)CC1)N(C1CCCC1)C1CCS(=O)(=O)C1 (stereo unspecified) | inconclusive: 0.282 µM [inhibitor, full curve, poor fit] | 
40 | CCCOc1ccc(/C(O)=C2/C(=O)C(=O)N(CCCn3ccnc3)C2c2ccco2)cc1 (stereo unspecified) |  | inactive: 4.25%
41 | O=C(CN1CCN(c2ccccc2)CC1)Nc1c(C(=O)C2CC2)oc2ccccc12 | inconclusive: 5.8 µM [inhibitor, partial curve] | 
42 | CCN(CC)CCCNc1nc(-n2nc(C)cc2C)nc2sc3c(c12)CC(C)(C)OC3 | inconclusive: 17.8 µM [inhibitor, single point] | 
43 | Cc1cc(C=C2C(=O)NC(=S)NC2=O)c(C)n1-c1ccc2c(c1)OCO2 |  | inactive: -50.5%
44 | Cc1ccc(NC(=O)C=NOCC(=O)Nc2cc(C)cc(C)c2)cc1 | inconclusive: 0.708 µM [inhibitor, single point] | 

Looked up above.
In Potency, `O=C(CN1CCN(c2ccc(F)cc2)CC1)N(C1CCCC1)C1CCS(=O)(=O)C1` (stereo unspecified) has inconclusive: 0.282 µM [inhibitor, full curve, poor fit]
In activity change, negative = inhibition, `Cc1ccc(C(=O)C2=C(O)C(=O)N(CCN3CCOCC3)C2c2ccccn2)o1` (stereo unspecified) has inactive: 2.29%
In Potency, `O=C(CN1CCN(c2ccccc2)CC1)Nc1c(C(=O)C2CC2)oc2ccccc12` has inconclusive: 5.8 µM [inhibitor, partial curve]

Following part

Row | SMILES | Potency | activity change, negative = inhibition
45 | COc1cccc(NC(=O)Nc2cc(Cl)ccc2C)c1 | inconclusive: 17.8 µM [inhibitor, partial curve] | 
46 | COc1cc(/C=C(\NC(=O)c2ccccc2)C(=O)N2CC3CC(C2)c2cccc(=O)n2C3)cc(OC)c1OC (stereo unspecified) | inconclusive: 2.82 µM [activator, partial curve, poor fit] | 
47 | CCCOc1ccc(C(=O)NNC(=S)NC(=O)c2cccs2)cc1 | active: 11.2 µM | 
48 | C=CCc1ccc(OCc2ccc(C(=O)Nc3ccc(NC(C)=O)cc3)o2)c(OC)c1 | inconclusive: 1.26 µM [activator, full curve, poor fit] | 
49 | Cc1cc(C)c(/C=N/NC(=O)c2nnn(-c3nonc3N)c2CN2CCC(C)CC2)c(C)c1 | inconclusive: 17.8 µM [inhibitor, partial curve, poor fit] | 
50 | CCCC1(c2ccccc2)NC(=O)N(CC(=O)c2[nH]c(C)c(C(=O)OCC)c2C)C1=O (stereo unspecified) | inconclusive: 14.1 µM [inhibitor, single point] | 
51 | Cc1cnc(NC(=O)CC2CCCC2)s1 |  | inactive: -1.5% [at 46.1 µM]
52 | NNC(=O)c1c[nH]c2ccc(OCc3ccccc3)cc12 |  | inactive: 9.12% [at 46.1 µM]
53 | O=C(O)c1ccccc1OCC1CCCO1 (stereo unspecified) |  | inactive: -5.67% [at 46.1 µM]
54 | Cn1c(-c2c(N)n(C3CCCC3)c3nc4ccccc4nc23)nc2ccccc21 | inconclusive: 16.4 µM [inhibitor, single point] | 
55 | CN(C)S(=O)(=O)Oc1ccsc1C(=O)Nc1cccc(Cl)c1 |  | inactive: -11.3%
56 | Cc1cccc2sc(N(CCCN(C)C)C(=O)c3ccc(C(=O)c4ccccc4)cc3)nc12 | inconclusive: 17.8 µM [inhibitor, single point] | 
57 | CCc1cc2c(nc1CC)CCN(CCC(C)=NOC[C@H]1O[C@H](c3ccccc3)C=C[C@H]1Oc1ccc(OC)cc1)C2 |  | inactive: -25.2% [at 14.2 µM]
58 | CCOC(=O)c1c(C)c(-c2ccccc2)n(CC(=O)NC2CCCCCC2)c1C | inconclusive: 1.26 µM [inhibitor, full curve] | 
59 | COc1ccnc(Oc2ccc(C)cc2C)c1C#N |  | inactive: 5.56%
60 | CC(C)c1ccc(C2CC(c3ccc(Br)cc3)=NN2C(N)=S)cc1 (stereo unspecified) | inconclusive: 22.4 µM [inhibitor, single point] | 
61 | CC(=O)Nc1cccc(NC(=O)C(=O)c2cn(CC(=O)N3CCCCC3)c3ccccc23)c1 | inconclusive: 12.6 µM [inhibitor, single point] | 
62 | O=C(NNC1CC(=O)N(c2ccccc2)C1=O)c1cccnc1 (stereo unspecified) |  | inactive: 6.09% [at 46.1 µM]
63 | CCN(CC(=O)Nc1c(F)cccc1F)C(=O)CNC(=O)c1ccc(C)s1 |  | inactive: 6%
64 | COc1ccccc1/C=C(/C(=O)OCC(=O)Nc1cc(C)ccc1C)c1ccccc1 | inconclusive: 12.6 µM [inhibitor, partial curve, poor fit] | 
65 | COc1ccc(CC(=O)N(C)Cc2ccc(C(C)(C)C)cc2)cc1S(=O)(=O)N1CCOCC1 | inconclusive: 35.5 µM [inhibitor, single point] | 
66 | Cc1ccc(C(C(=O)NC2CCCCC2)N(Cc2ccccc2)C(=O)Cc2c[nH]c3ccccc23)o1 (stereo unspecified) | inconclusive: 15.8 µM [inhibitor, single point] | 

Retrieved by compound from the list above:
Row | SMILES | Potency | activity change, negative = inhibition
52 | NNC(=O)c1c[nH]c2ccc(OCc3ccccc3)cc12 |  | inactive: 9.12% [at 46.1 µM]
51 | Cc1cnc(NC(=O)CC2CCCC2)s1 |  | inactive: -1.5% [at 46.1 µM]
